These are yes or no findings as the source states them, for the method shown. In cells and extracts the contact can be indirect. Some entries that bind do so weakly or less than the wild type.

Sequences of proteins named here, by UniProt entry; tags and fusion partners are left off.
UniProt Q9QR71: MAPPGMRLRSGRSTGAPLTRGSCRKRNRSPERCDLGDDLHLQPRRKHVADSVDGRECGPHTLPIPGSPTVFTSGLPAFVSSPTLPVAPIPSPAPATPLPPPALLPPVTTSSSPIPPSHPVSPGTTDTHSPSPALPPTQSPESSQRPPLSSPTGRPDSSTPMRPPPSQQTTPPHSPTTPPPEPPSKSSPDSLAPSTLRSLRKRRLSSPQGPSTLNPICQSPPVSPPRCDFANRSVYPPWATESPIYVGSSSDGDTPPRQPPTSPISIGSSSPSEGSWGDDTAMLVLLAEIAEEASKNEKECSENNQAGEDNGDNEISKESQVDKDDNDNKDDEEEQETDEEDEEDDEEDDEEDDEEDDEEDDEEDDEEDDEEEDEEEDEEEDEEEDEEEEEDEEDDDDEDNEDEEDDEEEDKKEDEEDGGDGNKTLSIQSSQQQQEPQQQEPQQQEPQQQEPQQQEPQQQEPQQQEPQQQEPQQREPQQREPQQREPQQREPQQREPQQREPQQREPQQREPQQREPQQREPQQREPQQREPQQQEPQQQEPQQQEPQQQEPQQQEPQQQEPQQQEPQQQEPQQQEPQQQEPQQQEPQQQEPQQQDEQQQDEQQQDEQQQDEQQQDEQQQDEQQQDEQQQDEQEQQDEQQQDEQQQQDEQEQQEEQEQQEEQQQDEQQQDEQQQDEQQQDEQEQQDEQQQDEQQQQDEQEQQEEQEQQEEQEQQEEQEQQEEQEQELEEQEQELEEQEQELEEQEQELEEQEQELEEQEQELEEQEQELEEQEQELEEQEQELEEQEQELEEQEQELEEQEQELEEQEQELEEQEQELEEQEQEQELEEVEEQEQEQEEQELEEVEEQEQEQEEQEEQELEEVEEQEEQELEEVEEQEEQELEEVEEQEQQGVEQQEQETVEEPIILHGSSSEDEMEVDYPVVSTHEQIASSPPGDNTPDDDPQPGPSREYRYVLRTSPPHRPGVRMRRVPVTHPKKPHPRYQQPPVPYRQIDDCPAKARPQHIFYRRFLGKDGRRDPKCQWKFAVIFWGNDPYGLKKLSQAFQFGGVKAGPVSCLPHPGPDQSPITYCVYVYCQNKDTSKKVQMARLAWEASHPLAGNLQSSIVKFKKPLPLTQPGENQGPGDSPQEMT
UniProt Q03164: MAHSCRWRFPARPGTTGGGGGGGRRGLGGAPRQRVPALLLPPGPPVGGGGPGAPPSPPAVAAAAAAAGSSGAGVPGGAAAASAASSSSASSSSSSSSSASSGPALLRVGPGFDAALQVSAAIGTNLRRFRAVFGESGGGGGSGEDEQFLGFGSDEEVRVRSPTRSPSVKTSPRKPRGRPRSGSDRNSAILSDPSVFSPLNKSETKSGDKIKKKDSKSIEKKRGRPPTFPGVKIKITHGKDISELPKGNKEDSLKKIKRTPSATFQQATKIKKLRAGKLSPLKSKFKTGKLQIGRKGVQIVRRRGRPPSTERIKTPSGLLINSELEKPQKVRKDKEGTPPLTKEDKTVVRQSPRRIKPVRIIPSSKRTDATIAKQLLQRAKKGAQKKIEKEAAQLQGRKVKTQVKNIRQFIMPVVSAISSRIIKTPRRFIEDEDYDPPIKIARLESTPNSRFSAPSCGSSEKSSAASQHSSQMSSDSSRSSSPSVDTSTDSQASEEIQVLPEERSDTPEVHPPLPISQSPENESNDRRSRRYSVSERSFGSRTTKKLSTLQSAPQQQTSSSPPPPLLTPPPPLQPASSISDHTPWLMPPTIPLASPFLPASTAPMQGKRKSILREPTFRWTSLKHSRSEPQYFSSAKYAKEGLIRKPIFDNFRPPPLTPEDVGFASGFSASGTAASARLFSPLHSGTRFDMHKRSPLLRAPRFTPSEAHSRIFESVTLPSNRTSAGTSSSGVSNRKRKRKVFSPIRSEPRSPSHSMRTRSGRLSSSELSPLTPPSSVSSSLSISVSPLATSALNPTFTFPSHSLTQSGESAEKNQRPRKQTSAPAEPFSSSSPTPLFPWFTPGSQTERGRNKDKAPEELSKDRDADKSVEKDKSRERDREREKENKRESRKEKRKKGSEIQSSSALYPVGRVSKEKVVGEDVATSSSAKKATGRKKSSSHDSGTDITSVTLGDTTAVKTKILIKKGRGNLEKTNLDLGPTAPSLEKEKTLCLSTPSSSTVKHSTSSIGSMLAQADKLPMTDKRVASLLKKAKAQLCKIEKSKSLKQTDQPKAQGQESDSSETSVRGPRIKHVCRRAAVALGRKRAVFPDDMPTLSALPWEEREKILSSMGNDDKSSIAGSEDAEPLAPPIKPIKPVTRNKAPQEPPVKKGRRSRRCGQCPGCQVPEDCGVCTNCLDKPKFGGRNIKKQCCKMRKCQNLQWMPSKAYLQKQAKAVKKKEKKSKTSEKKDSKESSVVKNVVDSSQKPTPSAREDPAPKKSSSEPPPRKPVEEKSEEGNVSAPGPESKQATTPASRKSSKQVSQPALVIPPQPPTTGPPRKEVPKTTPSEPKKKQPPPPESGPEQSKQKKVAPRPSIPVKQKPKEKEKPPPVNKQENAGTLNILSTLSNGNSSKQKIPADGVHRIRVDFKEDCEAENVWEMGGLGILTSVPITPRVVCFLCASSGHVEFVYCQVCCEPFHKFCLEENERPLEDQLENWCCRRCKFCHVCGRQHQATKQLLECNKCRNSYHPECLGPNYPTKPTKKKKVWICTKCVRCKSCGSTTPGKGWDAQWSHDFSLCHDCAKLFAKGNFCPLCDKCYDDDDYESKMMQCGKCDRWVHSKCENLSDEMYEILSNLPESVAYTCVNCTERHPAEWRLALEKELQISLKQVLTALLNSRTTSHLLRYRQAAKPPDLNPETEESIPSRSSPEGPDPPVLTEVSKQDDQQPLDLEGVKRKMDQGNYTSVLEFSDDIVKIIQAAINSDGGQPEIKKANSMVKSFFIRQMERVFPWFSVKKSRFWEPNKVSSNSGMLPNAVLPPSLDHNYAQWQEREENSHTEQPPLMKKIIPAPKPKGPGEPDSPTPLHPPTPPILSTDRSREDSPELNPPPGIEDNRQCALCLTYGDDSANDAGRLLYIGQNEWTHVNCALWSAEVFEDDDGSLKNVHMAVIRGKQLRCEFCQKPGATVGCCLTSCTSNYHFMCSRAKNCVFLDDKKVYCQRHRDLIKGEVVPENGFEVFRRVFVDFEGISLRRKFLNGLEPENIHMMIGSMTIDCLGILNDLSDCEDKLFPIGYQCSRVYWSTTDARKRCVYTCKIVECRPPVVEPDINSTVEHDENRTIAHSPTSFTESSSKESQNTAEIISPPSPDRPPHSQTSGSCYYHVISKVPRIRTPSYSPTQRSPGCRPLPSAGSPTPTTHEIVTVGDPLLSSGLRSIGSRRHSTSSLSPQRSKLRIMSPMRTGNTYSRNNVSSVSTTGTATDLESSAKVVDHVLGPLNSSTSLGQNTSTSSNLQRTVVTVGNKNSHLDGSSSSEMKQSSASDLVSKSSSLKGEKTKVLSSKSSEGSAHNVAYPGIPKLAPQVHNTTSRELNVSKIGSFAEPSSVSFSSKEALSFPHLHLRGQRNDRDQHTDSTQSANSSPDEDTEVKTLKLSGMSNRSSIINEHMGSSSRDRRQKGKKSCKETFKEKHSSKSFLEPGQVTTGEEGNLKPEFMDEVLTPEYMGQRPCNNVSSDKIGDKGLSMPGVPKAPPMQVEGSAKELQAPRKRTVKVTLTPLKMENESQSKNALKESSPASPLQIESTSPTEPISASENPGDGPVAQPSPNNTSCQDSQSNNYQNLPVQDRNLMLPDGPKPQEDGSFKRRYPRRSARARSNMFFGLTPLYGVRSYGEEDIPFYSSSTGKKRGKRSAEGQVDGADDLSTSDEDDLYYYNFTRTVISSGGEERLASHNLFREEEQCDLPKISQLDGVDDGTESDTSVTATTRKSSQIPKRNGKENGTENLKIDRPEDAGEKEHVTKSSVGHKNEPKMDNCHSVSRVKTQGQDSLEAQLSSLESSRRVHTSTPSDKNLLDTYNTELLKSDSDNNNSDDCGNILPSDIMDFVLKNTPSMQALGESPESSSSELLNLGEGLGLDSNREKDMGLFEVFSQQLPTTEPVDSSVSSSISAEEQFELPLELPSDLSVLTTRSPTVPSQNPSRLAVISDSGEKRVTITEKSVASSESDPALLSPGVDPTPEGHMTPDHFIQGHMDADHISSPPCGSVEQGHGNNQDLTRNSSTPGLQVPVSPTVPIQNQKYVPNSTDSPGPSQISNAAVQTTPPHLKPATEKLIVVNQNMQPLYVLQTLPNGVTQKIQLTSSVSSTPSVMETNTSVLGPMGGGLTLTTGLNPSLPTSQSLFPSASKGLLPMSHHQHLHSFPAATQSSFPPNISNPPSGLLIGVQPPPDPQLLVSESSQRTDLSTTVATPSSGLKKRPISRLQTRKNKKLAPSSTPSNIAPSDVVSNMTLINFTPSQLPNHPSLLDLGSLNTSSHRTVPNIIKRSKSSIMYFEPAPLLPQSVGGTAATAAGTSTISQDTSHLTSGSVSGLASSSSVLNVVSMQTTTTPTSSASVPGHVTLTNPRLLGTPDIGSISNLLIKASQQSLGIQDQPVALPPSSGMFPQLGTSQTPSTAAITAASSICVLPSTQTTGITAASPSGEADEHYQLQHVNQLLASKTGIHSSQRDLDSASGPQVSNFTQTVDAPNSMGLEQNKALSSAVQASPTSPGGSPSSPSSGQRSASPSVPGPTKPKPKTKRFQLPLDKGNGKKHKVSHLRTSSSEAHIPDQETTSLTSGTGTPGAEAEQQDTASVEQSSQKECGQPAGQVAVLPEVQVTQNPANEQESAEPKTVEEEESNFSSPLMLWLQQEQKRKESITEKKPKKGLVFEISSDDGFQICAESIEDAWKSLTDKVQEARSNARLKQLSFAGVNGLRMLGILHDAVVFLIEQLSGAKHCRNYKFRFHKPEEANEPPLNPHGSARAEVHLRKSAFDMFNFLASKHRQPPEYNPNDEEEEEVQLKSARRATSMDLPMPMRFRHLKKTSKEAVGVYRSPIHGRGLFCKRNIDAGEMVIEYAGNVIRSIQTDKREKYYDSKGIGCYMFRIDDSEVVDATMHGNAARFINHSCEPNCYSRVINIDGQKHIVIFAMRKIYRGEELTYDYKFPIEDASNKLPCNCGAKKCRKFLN

The target in this test is latency-associated nuclear antigen (LANA) (Kaposi's sarcoma-associated herpesvirus (KSHV, HHV8) (endogenous in latently infected BCBL-1, BC-3, TIVE-LTC)) (UniProt Q9QR71). The test is described as follows: co-IP; nuclear extract of BCBL-1, BC-3 or TIVE-LTC cells (extracted at 500 mM NaCl, diluted to 150 mM NaCl), immunoprecipitated with monoclonal rat antibody against LANA or control IgG at 4°C overnight, protein A/G beads, washed with PBS with 0.1% Tween-20, Western blot for endogenous RbBP5, ASH2L, hSET1 or MLL1.

As to “H3K4 methyltransferase hSET1 (from UniProt O15047 1-1707) (enzyme)”, the binding result is on record as “binds”. The value for “MLL1 (from UniProt Q03164 1-3969) (enzyme)” was “no binding”.

For the origin of these results see PMC4102568.
